# PubChem BioAssay AID2685 (National Center for Advancing Translational Sciences (NCATS), 2010)
# The list shows a part of the results. Further columns of the screen follow, without active or inactive calls. The list favours compounds with an active or inconclusive main result. Potencies come from curve fits of mixed quality, noted in brackets.
# Assay: qHTS Assay for Lipid Storage Modulators in Drosophila S3 Cells;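 as to cell number change: cells counted by Cell Tracker Red CMTPX staining in the red channel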
# Details: BODIPY lipid droplet fluorescence, 18-24 h; for cell number change: measured here: cell count max response, cells fed with added oleic acid
# Outline: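 Drosophila S3 cells loaded with oleic acid (400 uM, as added) and compounds at several concentrations; lipid droplets imaged by 488-nm laser-scanning cytometry, 500–530 nm intensity and object ratio to cell channel. Percent activity normalized to 20 uM Triacsin C.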
# [1] = measured here: cell number channel AC50, cells fed with added oleic acid
# [2] = measured here: lipid fluorescence (Fed channel) AC50, cells fed with added oleic acid
Structure (SMILES),AC50 [1],AC50 [2],cell number change
O=C1CCCN2N=C(SCC(=O)Nc3cccc(F)c3)SC2=N1,"1.84 µM [falling, partial curve]","29.1 µM [falling, single point]",
Cc1ccc(C(=O)N/C(=C/c2cccnc2)C(=O)N2CCCCCC2)cc1,,"6.51 µM [rising, single point]",13%
CCN1CCN(Cc2coc3ccc(C)cc3c2=O)CC1,,"18.4 µM [falling, single point]",9.44%
Nc1cccc(Nc2nc(OC(C(F)(F)F)C(F)(F)F)nc(OC(C(F)(F)F)C(F)(F)F)n2)c1,"29.1 µM [falling, single point]",,-42.5%
COc1ccc(/C=N/NC(=O)c2ccc(O)cc2O)cc1CSc1ccccn1,,"8.2 µM [rising, partial curve, poor fit]",6.64%
O=C(c1ccc(N2CCN(C3CC(=O)N(Cc4cccs4)C3=O)CC2)cc1)c1cccnc1 (stereo unspecified),"0.461 µM [rising, full curve, poor fit]","0.326 µM [rising, partial curve, poor fit]",0.678%
Cc1ccc2nc(=O)c(NNc3ccccc3)cnc2c1,,"0.461 µM [rising, full curve]",4.08%
COc1ccc(N(CC(=O)NCc2ccccn2)S(=O)(=O)c2ccccc2[N+](=O)[O-])c(OC)c1,"2.91 µM [rising, full curve, poor fit]","3.26 µM [rising, partial curve]",28.8%
CCc1cc2c(NCC3CCCO3)ncnc2s1 (stereo unspecified),"14.6 µM [falling, partial curve]",,-35%
CCCCNC(=O)C1CCN(S(=O)(=O)N2CCOCC2)CC1,,,-0.0963%
CC(CNC(=O)Cn1ccc(N)nc1=O)c1ccccc1 (stereo unspecified),,"0.58 µM [falling, partial curve]",-5.69%
Cc1ccc(C)c(N2CCN(C(=O)C3CCCN(S(=O)(=O)c4cnc[nH]4)C3)CC2)c1 (stereo unspecified),,"1.3 µM [falling, full curve]",-40.2%
O=C(COC(=O)c1cc(-c2cccs2)nn1-c1ccccc1)Nc1ccc(Cl)c([N+](=O)[O-])c1,,"25.9 µM [rising, single point]",23.2%
C/C(=N\NC(=O)c1ccc(Cn2cc(Br)cn2)o1)c1ccc(NC(=O)c2ccoc2C)cc1,"8.2 µM [falling, partial curve]","0.651 µM [falling, full curve, poor fit]",-36.2%
COc1ccc(NC(=O)CN(C)S(=O)(=O)c2cccc3cccnc23)cc1,,"0.00517 µM [rising, full curve, poor fit]",

# Complete entries as entered above.
# `CC(CNC(=O)Cn1ccc(N)nc1=O)c1ccccc1` (stereo unspecified) in the list: AC50 [2]: 0.58 µM [falling, partial curve]; cell number change: -5.69%
# `CCc1cc2c(NCC3CCCO3)ncnc2s1` (stereo unspecified) in the list: AC50 [1]: 14.6 µM [falling, partial curve]; cell number change: -35%
